Values from PubChem BioAssay AID1053208 (Peter MacCallum Cancer Centre, 2014)
The deposit covers about 17,000 reagents; this is a part drawn at random. Over the whole deposit, 788 (4.7%) were called active. 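Calls rest on z-score classes alone; an extra cut-off of viability at most 70% of control was not applied to them.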

Assay: 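Synthetic lethal interactions between gene loss and doxorubicin in osteosarcoma cells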 (primary screen)
Cell system: mouse osteosarcoma cells, early-passage culture from an engineered mouse model of fibroblastic bone tumour
Reagent: siRNA pool against mouse genes, 40 nM
Time to read-out: about 120 h (48 h before drug, then 72 h with drug)
Challenge: doxorubicin 100 nM for 72 h, roughly 30-40% inhibitory dose
Read-out: 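Viability read as ATP luminescence after 72 h of 100 nM doxorubicin or none, duplicate wells averaged, scaled to non-targeting siRNA, then expressed as robust z-scores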
Direction: viability z-score with doxorubicin and doxorubicin viability vs non-targeting: higher = more viable cells under doxorubicin; viability z-score without drug: higher = more viable cells with knock-down alone; z-score of drug to no-drug ratio: higher = less drug sensitisation by knock-down
Rule for the call: 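Called active if knock-down leaves viability unchanged without drug (z within -2 to 2) but lowers it with doxorubicin (z at or under -2)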

gene symbol	combined z-score class	viability z-score with doxorubicin	viability z-score without drug	z-score of drug to no-drug ratio	doxorubicin viability vs non-targeting	Outcome
Nt5m	no change with or without drug	-0.45	0.17	-0.45	0.9	inactive
Wrn	no change with or without drug	-0.45	-0.67	0.11	0.9	inactive
Slc45a3	low cell count with doxorubicin only	-2.81	0.84	-3.26	0.69	active
Spta1	no change with or without drug	-0.22	-0.84	0.45	0.92	inactive
2310033P09Rik	no change with or without drug	-1.46	-0.51	-1.12	0.81	inactive
C1qtnf4	no change with or without drug	0.45	1.52	-0.45	0.98	inactive
Zfand2a	no change with or without drug	0	0.34	-0.11	0.94	inactive
Gpr82	no change with or without drug	-0.9	0.84	-1.35	0.86	inactive
Cdyl2	no change with or without drug	-1.57	-0.84	-1.01	0.8	inactive
Ccna1	no change with or without drug	-0.22	0.17	-0.22	0.92	inactive
9130019P16Rik	no change with or without drug	-0.45	-0.51	0	0.9	inactive
Gtpbp1	no change with or without drug	-0.45	-0.84	0.22	0.9	inactive
Hk2	no change with or without drug	0.67	0.84	0.22	1	inactive
Bnc1	low cell count with doxorubicin only	-2.59	-0.51	-2.36	0.71	active
Vma12	no change with or without drug	-0.34	-0.17	-0.11	0.91	inactive
Nup42	no change with or without drug	0	-0.84	0.67	0.94	inactive
Ftmt	high cell count without drug only	-1.35	2.87	-2.81	0.82	inactive
Tm4sf5	no change with or without drug	-1.57	-0.67	-1.12	0.8	inactive
Pabir3	no change with or without drug	-0.22	1.85	-1.24	0.92	inactive
Krt9	no change with or without drug	-0.45	-1.01	0.34	0.9	inactive
Bacc1	no change with or without drug	-1.01	-0.84	-0.45	0.85	inactive
Zc2hc1a	no change with or without drug	0	1.85	-1.01	0.94	inactive
Snrnp27	no change with or without drug	0.67	0.34	0.56	1	inactive
Rbm47	no change with or without drug	-0.22	0.34	-0.34	0.92	inactive
Tmem270	no change with or without drug	-0.9	0	-0.79	0.86	inactive
Fasn	no change with or without drug	0.11	-0.67	0.67	0.95	inactive
Itga9	low cell count with and without drug	-2.92	-2.19	-1.69	0.68	inactive
Cldn16	no change with or without drug	0.34	-0.84	1.12	0.97	inactive
Cort	no change with or without drug	1.69	0.84	1.24	1.09	inactive
Shroom3	no change with or without drug	-1.35	-1.52	-0.34	0.82	inactive
Or2a56	no change with or without drug	-1.91	-1.18	-1.12	0.77	inactive
Tmem14a	no change with or without drug	0.67	1.52	-0.22	1	inactive
Ccnb2	no change with or without drug	0.11	0.17	0.11	0.95	inactive
Sgca	no change with or without drug	0.34	-0.17	0.56	0.97	inactive
Des	high cell count without drug only	0.67	2.02	-0.56	1	inactive
AL022832	no change with or without drug	-1.12	-0.51	-0.79	0.84	inactive
Riok2	no change with or without drug	-0.22	0.84	-0.67	0.92	inactive
Pgpep1	no change with or without drug	1.24	0.17	1.24	1.05	inactive
Zpld1	low cell count with doxorubicin only	-2.02	-0.67	-1.57	0.76	active
Olig2	no change with or without drug	0.9	0.67	0.56	1.02	inactive
Grm6	high cell count with doxorubicin only	2.25	-0.67	3.04	1.14	inactive
Pcdhb11	low cell count with and without drug	-3.04	-2.19	-1.8	0.67	inactive
Gstt1	no change with or without drug	0.67	1.85	-0.45	1	inactive
Mrgprb4	no change with or without drug	0.22	0.51	0	0.96	inactive
Lingo1	no change with or without drug	-0.11	-1.52	1.12	0.93	inactive
Dlc1	no change with or without drug	-1.8	1.18	-2.47	0.78	inactive
Sec16a	no change with or without drug	0.34	-0.51	0.79	0.97	inactive
Mrps27	no change with or without drug	-1.57	-1.35	-0.67	0.8	inactive
Clock	no change with or without drug	0	1.18	-0.67	0.94	inactive
Atp13a2	no change with or without drug	0.67	0.51	0.45	1	inactive
Tmem82	no change with or without drug	-1.12	1.01	-1.69	0.84	inactive
Ly9	no change with or without drug	0.9	0.17	0.9	1.02	inactive
Pramel13	no change with or without drug	0.9	-0.17	1.24	1.02	inactive
Cd3g	no change with or without drug	-0.22	0.17	-0.22	0.92	inactive
Fstl5	no change with or without drug	0.34	0.84	-0.11	0.97	inactive
Rps13	low cell count with and without drug	-7.53	-7.93	-4.72	0.27	inactive
Cebpa	no change with or without drug	0	-0.51	0.45	0.94	inactive
Dsc1	no change with or without drug	1.46	1.52	0.56	1.07	inactive
Cers4	no change with or without drug	-1.46	-0.17	-1.35	0.81	inactive
Slc18a3	low cell count with doxorubicin only	-2.47	0.17	-2.59	0.72	active
Shroom1	no change with or without drug	-0.11	0.17	-0.11	0.93	inactive
Trim24	no change with or without drug	-0.67	-0.51	-0.22	0.88	inactive
Tmem175	no change with or without drug	0.22	-0.17	0.45	0.96	inactive
